{
  "source": "patent US6861260B2",
  "about": "“Lipid membrane, method for measuring membrane permeability, and method for screening” (Chugai Seiyaku Kabushiki Kaisha, priority 2000, dated 2005)",
  "origin": "cited, not measured here",
  "conditions": "literature data, References *1 to *4; cited from earlier work",
  "note": "Marks after values point to notes of the source that are not given here.",
  "data": [
    {"smiles": "CC(C)NCC(O)COc1ccc(CC(N)=O)cc1", "note": "(centres unmarked) [Atenolol]", "values": [
      {"measurement": "Human intestinal absorption (Fa, %)", "value": "50*^1%"}
    ]},
    {"smiles": "NS(=O)(=O)c1cc(C(=O)O)c(NCc2ccco2)cc1Cl", "note": "[Furosemide]", "values": [
      {"measurement": "Human intestinal absorption (Fa, %)", "value": "61*^1%"}
    ]}
  ]
}
